Record: PubChem BioAssay AID1259254 (NCATS, 2017)
Here is an unselected part of about 59,000 reagents. About 1,550 of them (2.6%) count as active. 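G2 share is only a proxy for re-replication; each gene was hit by three separate siRNAs, and active genes were retested.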 Entries without a mark were called inactive. The numbers tell different reagents against one gene apart. Further read-outs or replicates are left out here. Not given: the amount of reagent.

Purpose: 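Genome-wide screen for genes that prevent DNA re-replication in cancer cells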 (primary screen)
Cell system: human HCT116 colorectal cancer cells
Reagents: single siRNA against human genes
Time to read-out: 3 days
Measured: 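Imaged Hoechst DNA stain sorts each cell into a cycle phase by DNA amount; per plate, G2 fraction set to 0% for non-targeting and 100% for GMNN siRNA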
Direction: G2 robust z-score: higher = more G2 cells, more excess DNA replication
Call rule: 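Active siRNAs have a G2 robust z of 5 or more median absolute deviations over the median, which in these data means about 38% or higher of GMNN control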

target gene	reagent no.	G2 robust z-score
RFESD	1	0.947
RFESD	2	-0.492
RFESD	3	1.51
IL17RA	1	0.989
IL17RA	2	-0.584
IL17RA	3	-0.96
FREM1	1	-1.34
FREM1	2	0.0389
FREM1	3	-0.291
MTCH2	1	0.644
MTCH2	2	3
MTCH2	3	0.206
FCGR1BP	1	0.55
FCGR1BP	2	4.47
FCGR1BP	3	1.71
LOC100505502	1	-0.403
LOC100505502	2	-0.364
LOC100505502	3	-0.508

Looked up above:
Result of LOC100505502 #1 under “G2 robust z-score”: -0.403
Under “G2 robust z-score”, RFESD #3 shows 1.51
Result of FREM1 #1 under “G2 robust z-score”: -1.34

Continued.
target gene	reagent no.	G2 robust z-score
HS3ST5	1	3.03
HS3ST5	2	0.0754
HS3ST5	3	-0.907
COPG1	1	4.01
COPG1	2	2.51
COPG1	3	1.83
GPR101	1	0.744
GPR101	2	-0.785
GPR101	3	-0.831
MARK4	1	-0.632
MARK4	2	-1.4
MARK4	3	-0.641
